# Measured values from the supplement of paper PMC7666118.
# Chains of the proteins cited; added tags and fusions are not shown. Lines headed by an entry give the natural chain unless they say otherwise; changes in a name come on top.
# UniProt P25440, whole entry, looked up: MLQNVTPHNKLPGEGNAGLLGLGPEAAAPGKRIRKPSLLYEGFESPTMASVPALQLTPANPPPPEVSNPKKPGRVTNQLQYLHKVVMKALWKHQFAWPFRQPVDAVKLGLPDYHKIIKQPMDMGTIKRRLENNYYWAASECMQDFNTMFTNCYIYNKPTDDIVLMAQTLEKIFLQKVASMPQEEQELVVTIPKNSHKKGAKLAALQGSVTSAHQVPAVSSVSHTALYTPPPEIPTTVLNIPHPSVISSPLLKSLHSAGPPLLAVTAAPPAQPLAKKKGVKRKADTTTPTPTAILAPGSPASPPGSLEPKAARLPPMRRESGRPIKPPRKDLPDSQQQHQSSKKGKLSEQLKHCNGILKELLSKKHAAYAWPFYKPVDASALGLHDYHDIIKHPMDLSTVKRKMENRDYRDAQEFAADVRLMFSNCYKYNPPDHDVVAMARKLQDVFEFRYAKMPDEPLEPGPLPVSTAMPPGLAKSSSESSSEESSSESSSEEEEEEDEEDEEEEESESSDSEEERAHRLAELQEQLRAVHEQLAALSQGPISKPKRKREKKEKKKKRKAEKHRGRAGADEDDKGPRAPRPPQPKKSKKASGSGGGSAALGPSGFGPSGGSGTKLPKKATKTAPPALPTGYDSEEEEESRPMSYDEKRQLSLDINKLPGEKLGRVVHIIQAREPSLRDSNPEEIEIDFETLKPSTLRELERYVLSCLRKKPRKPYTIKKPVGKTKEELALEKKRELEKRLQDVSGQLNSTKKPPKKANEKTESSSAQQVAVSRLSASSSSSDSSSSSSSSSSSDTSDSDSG
# UniProt Q15059, whole entry, looked up: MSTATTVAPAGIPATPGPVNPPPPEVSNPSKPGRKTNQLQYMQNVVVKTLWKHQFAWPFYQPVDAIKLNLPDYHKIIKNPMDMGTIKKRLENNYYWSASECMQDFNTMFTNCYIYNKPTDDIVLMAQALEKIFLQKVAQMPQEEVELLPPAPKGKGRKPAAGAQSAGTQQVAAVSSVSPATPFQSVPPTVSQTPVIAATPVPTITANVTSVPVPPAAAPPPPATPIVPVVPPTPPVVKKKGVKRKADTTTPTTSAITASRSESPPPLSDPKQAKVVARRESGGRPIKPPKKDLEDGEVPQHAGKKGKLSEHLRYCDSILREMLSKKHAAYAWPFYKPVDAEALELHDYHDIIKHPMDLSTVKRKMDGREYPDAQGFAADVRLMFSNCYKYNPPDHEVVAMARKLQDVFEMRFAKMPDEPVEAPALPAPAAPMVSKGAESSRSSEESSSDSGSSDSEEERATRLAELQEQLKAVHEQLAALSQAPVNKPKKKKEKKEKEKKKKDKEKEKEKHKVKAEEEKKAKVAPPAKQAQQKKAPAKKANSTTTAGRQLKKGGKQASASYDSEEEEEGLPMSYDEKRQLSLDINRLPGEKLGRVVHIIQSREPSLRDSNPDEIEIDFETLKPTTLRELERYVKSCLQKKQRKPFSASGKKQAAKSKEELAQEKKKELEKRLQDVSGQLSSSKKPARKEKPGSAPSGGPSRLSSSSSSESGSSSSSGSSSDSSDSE
# UniProt Q13315: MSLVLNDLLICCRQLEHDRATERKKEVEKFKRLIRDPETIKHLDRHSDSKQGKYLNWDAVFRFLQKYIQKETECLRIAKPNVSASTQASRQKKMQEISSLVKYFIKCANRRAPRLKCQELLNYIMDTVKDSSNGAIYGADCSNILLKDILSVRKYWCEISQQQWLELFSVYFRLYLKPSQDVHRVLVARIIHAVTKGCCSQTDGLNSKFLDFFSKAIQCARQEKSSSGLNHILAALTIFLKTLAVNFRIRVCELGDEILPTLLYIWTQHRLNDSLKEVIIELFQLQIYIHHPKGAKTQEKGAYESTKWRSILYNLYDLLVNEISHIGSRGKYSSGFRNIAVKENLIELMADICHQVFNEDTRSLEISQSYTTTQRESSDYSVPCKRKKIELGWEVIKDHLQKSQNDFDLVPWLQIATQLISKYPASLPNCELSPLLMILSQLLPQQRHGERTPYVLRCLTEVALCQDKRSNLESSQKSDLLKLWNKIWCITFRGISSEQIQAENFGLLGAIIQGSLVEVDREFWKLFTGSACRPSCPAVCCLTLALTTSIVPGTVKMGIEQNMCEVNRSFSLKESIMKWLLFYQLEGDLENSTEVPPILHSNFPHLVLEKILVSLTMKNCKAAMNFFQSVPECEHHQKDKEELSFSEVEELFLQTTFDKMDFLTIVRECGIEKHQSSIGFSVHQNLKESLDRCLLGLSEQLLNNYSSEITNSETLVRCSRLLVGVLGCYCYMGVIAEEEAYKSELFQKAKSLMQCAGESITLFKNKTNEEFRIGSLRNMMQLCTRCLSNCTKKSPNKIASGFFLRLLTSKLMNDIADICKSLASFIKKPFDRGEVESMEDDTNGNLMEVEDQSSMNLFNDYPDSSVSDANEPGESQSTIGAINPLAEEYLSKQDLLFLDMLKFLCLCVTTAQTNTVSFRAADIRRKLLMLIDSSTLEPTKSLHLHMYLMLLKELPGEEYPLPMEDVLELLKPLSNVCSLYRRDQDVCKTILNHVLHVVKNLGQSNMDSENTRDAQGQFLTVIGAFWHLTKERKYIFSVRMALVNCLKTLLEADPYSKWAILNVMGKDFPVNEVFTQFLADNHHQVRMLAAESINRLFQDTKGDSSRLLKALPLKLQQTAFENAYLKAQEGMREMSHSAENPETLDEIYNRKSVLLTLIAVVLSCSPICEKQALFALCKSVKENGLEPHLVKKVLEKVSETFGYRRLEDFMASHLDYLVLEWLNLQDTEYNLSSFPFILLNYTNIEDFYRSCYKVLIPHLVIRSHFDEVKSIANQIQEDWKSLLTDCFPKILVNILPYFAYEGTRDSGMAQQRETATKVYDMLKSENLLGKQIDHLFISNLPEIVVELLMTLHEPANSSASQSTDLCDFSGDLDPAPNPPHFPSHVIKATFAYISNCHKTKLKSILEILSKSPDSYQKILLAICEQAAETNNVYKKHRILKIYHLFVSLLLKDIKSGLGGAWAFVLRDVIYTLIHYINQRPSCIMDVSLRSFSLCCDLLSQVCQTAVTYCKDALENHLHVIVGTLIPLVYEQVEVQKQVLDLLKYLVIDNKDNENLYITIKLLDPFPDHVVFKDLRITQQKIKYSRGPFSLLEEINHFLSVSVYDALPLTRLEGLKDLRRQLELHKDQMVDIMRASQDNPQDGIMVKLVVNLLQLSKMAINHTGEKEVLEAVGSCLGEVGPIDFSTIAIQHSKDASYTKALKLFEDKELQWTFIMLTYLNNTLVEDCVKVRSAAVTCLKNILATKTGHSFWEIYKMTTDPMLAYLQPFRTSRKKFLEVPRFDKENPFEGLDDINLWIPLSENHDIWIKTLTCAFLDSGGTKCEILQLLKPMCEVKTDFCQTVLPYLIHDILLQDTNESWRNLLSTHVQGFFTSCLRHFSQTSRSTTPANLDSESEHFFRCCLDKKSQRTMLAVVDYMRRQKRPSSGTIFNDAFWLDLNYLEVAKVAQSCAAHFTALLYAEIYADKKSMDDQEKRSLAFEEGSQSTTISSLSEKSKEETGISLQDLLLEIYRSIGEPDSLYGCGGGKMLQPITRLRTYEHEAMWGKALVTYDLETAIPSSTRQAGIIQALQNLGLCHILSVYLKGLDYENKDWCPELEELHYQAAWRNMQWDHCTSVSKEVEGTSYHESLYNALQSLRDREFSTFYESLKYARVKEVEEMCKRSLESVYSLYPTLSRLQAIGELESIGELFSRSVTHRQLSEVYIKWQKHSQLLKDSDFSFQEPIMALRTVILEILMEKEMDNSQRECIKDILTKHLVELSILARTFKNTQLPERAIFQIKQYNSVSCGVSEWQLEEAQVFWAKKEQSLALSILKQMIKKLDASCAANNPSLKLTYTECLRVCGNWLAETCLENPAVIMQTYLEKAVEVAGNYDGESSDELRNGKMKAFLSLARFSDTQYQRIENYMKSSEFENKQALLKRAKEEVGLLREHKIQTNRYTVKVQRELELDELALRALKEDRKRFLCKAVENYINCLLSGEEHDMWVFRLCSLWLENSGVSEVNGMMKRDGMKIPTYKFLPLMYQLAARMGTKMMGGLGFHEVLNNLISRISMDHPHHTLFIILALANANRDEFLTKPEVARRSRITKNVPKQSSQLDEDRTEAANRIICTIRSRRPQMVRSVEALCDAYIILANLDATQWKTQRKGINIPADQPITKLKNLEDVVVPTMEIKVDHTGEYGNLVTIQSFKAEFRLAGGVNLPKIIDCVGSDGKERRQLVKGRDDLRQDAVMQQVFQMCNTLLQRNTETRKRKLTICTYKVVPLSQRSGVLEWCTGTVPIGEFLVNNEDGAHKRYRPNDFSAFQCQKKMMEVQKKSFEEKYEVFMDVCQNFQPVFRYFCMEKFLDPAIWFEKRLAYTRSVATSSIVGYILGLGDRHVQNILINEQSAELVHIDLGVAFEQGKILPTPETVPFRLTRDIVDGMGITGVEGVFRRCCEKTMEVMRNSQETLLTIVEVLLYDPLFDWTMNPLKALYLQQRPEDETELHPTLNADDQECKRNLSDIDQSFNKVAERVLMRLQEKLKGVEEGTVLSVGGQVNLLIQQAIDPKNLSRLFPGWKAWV
# UniProt Q9H7C9: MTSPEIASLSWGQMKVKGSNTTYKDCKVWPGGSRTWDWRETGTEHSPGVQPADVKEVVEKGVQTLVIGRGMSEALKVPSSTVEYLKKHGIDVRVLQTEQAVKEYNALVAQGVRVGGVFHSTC
# UniProt Q92843: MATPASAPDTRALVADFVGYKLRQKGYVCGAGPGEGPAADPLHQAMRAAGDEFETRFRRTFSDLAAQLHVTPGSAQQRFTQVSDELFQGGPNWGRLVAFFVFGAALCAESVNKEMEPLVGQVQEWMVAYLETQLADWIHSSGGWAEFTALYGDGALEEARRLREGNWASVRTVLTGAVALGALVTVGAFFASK
# UniProt P56381: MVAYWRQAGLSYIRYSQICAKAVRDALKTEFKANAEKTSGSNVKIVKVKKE
# UniProt P56385: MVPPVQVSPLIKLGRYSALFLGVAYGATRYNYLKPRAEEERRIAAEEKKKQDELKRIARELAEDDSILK
# UniProt Q9Y689: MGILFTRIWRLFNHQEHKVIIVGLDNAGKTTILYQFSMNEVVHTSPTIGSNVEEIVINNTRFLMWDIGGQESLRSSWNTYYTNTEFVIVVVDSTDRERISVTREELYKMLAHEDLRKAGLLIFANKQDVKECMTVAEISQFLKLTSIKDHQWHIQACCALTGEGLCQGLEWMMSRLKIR
# UniProt Q12982: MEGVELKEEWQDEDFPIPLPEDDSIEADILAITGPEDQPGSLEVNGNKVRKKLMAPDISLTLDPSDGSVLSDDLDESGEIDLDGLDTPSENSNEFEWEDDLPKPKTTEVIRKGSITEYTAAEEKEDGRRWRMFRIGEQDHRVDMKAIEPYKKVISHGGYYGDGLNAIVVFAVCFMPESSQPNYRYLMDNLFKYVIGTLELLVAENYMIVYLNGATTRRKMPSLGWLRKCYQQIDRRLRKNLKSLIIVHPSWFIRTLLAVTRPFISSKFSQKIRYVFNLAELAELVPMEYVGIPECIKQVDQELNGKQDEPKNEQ
# UniProt Q15904, whole entry: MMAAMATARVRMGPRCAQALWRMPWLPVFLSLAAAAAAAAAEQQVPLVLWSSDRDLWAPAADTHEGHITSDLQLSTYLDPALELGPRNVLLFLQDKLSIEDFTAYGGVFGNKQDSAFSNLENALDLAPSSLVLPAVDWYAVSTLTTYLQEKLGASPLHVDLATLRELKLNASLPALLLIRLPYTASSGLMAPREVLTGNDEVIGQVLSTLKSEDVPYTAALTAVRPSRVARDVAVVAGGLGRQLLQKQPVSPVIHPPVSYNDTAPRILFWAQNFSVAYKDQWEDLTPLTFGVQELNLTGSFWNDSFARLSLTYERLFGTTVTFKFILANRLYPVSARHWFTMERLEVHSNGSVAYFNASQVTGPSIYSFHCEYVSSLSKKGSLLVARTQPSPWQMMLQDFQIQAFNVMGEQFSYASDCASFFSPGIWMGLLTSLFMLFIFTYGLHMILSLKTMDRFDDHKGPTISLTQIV
# UniProt Q8IZQ5, whole entry: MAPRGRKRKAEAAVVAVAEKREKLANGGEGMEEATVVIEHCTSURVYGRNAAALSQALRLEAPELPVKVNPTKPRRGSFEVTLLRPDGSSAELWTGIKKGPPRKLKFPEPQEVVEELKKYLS
# UniProt Q9H3K6: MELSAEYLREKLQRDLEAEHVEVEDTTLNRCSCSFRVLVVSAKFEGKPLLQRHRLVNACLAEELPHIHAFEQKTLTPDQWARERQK
# UniProt O75947: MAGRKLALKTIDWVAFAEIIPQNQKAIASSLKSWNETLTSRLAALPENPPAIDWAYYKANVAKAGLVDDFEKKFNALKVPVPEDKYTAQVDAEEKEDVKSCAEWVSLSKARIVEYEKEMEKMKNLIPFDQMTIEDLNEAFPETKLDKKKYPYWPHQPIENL
# The list shows a part of the results.
# Compound: COc1ccc(Cn2ccc3ccc(C(=O)NO)cc32)cc1
# Experiment: dose-dependent thermal stabilisation call (2D-TPP, DLPTP, 10% FDR) (binary (1 = stabilised)); higher = stabilised by the compound
# Details: system: HL-60 intact cells; concentration range 0.04-10 µM
row,Target,dose-dependent thermal stabilisation call
1,BRD2 (UniProt P25440),inactive: 0
2,BZW2 (UniProt Q9Y6E2),inactive: 0
3,BRD3 (UniProt Q15059),inactive: 0
4,BSG (UniProt P35613),inactive: 0
5,BTF3L4 (UniProt Q96K17),inactive: 0
6,BRD8 (UniProt Q9H0E9),inactive: 0
7,ARL8B (UniProt Q9NVJ2),inactive: 0
8,C12ORF45 (UniProt Q8N5I9),inactive: 0
9,ATM (UniProt Q13315),inactive: 0
10,C12ORF11 (UniProt Q9NVM9),inactive: 0
11,ATP5A1 (UniProt P25705),inactive: 0
12,BLMH (UniProt Q13867),inactive: 0
13,BST2 (UniProt Q10589),inactive: 0
14,C12ORF65 (UniProt Q9H3J6),inactive: 0
15,C11ORF67 (UniProt Q9H7C9),inactive: 0
16,ATG4C (UniProt Q96DT6),inactive: 0
17,ASB6 (UniProt Q9NWX5),inactive: 0
18,BCL2L2 (UniProt Q92843),inactive: 0
19,BAG4 (UniProt O95429),inactive: 0

# Quoted at random: 3 records from the list
row,Target,dose-dependent thermal stabilisation call
11,ATP5A1 (UniProt P25705),inactive: 0
9,ATM (UniProt Q13315),inactive: 0
1,BRD2 (UniProt P25440),inactive: 0

# Next entries:

row,Target,dose-dependent thermal stabilisation call
1,BPTF (UniProt Q12830),inactive: 0
2,ATP5E (UniProt P56381),inactive: 0
3,ATP5I (UniProt P56385),inactive: 0
4,ARL5A (UniProt Q9Y689),inactive: 0
5,BNIP2 (UniProt Q12982),inactive: 0
6,AURKB (UniProt Q96GD4),inactive: 0
7,C10ORF119 (UniProt Q9BTE3),inactive: 0
8,ASAP1 (UniProt Q9ULH1),inactive: 0
9,ATP6AP1 (UniProt Q15904),inactive: 0
10,C11ORF31 (UniProt Q8IZQ5),inactive: 0
11,ATP2A2 (UniProt P16615),inactive: 0
12,ARMC7 (UniProt Q9H6L4),inactive: 0
13,BOLA2 (UniProt Q9H3K6),inactive: 0
14,BTF3 (UniProt P20290),inactive: 0
15,BOLA3 (UniProt Q53S33),inactive: 0
16,ATP5H (UniProt O75947),inactive: 0
17,ATAD1 (UniProt Q8NBU5),inactive: 0
18,BCL7C (UniProt Q8WUZ0),inactive: 0
